Substitutions are numbered along the chain they refer to. Results are given in words; binding and its absence hold for the method and conditions named. Some results given as binding are weak or reduced against the parent protein; the word gives no strength. Blank lines part the entries; values can stand above or below the binder they belong to.
Legend:
[1] = target: IL-23 bound to IL-12Rβ1 on the surface of transfected cells (human) (UniProt P29460+Q9NPF7+P42701); assay: flow cytometry: antibody added to IL-23 prebound to IL-12Rβ1 Jurkat cells, anti-human IgG-FITC
human IL-23 (human) [2] = target: human IL-23 (human) (UniProt P29460); assay: ELISA, coated IL-23
human IL-12 (human) [3] = target: human IL-12 (human) (UniProt P29460); assay: ELISA
human IL-23 (human) [4] = target: human IL-23 (human) (UniProt P29460); assay: ELISA
human IL-12 (human) [5] = target: human IL-12 (human) (UniProt P29460); assay: ELISA, coated IL-12

The chains behind the UniProt entries cited, without tags or fusion partners. Where a name states a change or a piece, a line headed by the entry shows the natural chain unless it says otherwise.
UniProt P29460: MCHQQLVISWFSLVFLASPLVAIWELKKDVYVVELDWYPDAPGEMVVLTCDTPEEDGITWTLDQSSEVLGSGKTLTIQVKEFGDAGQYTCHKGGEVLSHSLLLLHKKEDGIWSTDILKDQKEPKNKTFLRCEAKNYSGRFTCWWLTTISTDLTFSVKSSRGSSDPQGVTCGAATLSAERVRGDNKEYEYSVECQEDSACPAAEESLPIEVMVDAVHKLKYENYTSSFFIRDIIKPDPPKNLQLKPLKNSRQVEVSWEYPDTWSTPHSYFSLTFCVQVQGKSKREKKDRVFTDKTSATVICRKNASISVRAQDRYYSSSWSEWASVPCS
UniProt Q9NPF7: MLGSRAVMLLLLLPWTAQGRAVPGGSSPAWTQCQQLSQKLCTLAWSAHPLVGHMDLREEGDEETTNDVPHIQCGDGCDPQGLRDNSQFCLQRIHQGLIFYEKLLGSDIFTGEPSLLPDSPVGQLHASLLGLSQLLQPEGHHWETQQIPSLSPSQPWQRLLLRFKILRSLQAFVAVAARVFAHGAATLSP

B1: Antibody 1 (antibody, human IgG1, kappa, V domains shown)
VH: EVQLQQSGADLVRSGASIKLSCTASGFNIKDYYMHWVKQRPEQGLEWIGWIDPENGDTEYAPKFQGKATMTADTSSNTAYLQLSSLTSEDTAVYYCNACKELRYFDVWGAGTTVTVSS
VL: DIVLTQSPATLSVTPGDSVSLSCRASQSISINLHWYQQKSHESPRLLIKFASQSISGIPSRFSGYGSGTDFTLSINSVETEDFGRYFCQQSNSWPLTFGAGTKLELKR
binding [1]: binds

B2: Antibody 43 (antibody, human IgG1, kappa, V domains shown)
VH: QVQLVQSGAEVKKPGASVKVSCKVSGYTLTDYYMHWVRQAPGKGLEWMGWIDPENGDTEYAPKFQGRVTMTEDTSTDTAYMELSSLRSEDTAVYYCATCKELRYFDVWGQGTMVTVSS
VL: EIVMTQSPATLSVSPGERATLSCRASQSISINLHWYQQKPGQAPRLLIYFASQSISGIPARFSGSGSGTEFTLTISSLQSEDFAVYYCQQSNSWPLTFGGGTKVEIKR
binding (human IL-23 (human) [2]): binds
binding (human IL-12 (human) [3]): binds
binding (human IL-23 (human) [4]): binds
binding (human IL-12 (human) [5]): binds

B3: Antibody 46 (antibody, human IgG1, kappa, V domains shown)
VH: B2 VH with V24A, L29F, K43Q, E72T, D77S, S84R, E89D, T98R
VL: B2 VL with M4L, V13L, E70D, Q79E, S80P
binding (human IL-23 (human) [2]): binds
binding (human IL-12 (human) [3]): binds
binding (human IL-23 (human) [4]): binds
binding (human IL-12 (human) [5]): binds

Next, values leading:

binding (human IL-23 (human) [2]): binds
binding (human IL-12 (human) [5]): binds
B4: Antibody 111 (antibody, human IgG1, kappa, V domains shown)
VH: EVQLVQSGAEVKKPGATVKISCKASGYTFSDYYLHWVRQAPGKGLEWMGWIDPENGDTEYAPKFQGRVTITADTSTDTGYLELSSLRSEDTAVYYCAANKELRYFDVWGQGTLVTVSS
VL: DIQMTQSPSSVSASVGDRVTITCRASQSISINLHWYQQKPGKAPKLLIYFASQSISGVPSRFSGSGSGTDFSLTINSLQPEDFARYYCQQSNSFPLTFGGGTKVEIKR

binding (human IL-23 (human) [2]): binds
binding (human IL-12 (human) [5]): binds
B5: Antibody 190 (antibody, human IgG1, kappa, V domains shown)
VH: QVQLVQSGAEVKKPGASVKVSCKASGYTFTDYYLHWVRQAPGQGLEWMGWIDPENGDTEYAPKFQGRVTMTTDTSTSTAYMELRSLRSDDTAVYYCNANKELRYFDVWGQGTMVTVSS
VL: B4 VL with P80T, R85T

Reference: US20110262445A1
